For the experiment, the system named is Babesia duncani. Kind of experiment: Propidium iodide-based in vitro dose-response assay, B. duncani-infected red blood cells, 384-well plates. In kind it is cell-based. Conditions: Erythrocyte, Table 1, two replicate 9-point dilution experiments, combined data. On the procedure:
Frozen stocks of B. duncani were provided by the Ben Mamoun lab at Yale University. Culture maintenance was undertaken as described by Singh et al^18 with the following adaptations: Media, completed DMEM/F12 (cDMEM; 20% heat-inactivated fetal bovine serum (Sigma-Aldrich catalogue #12,306 C-500ML), 1 x HT media supplement (Sigma-Aldrich catalogue # H0137-10VL), 1 x L-glutamine (Gibco, catalogue # 25030–081), 1 x antibiotic-antimycotic (Gibco catalogue #15240–062), and 1 x gentamicin (Gibco catalogue #15710–072)), was changed every other day and cultures were kept in a modular incubator gassed with 2% O2, 5% CO2, 93% N2 at 37°C. […] One day before the start, the media was changed, and parasitemia was assessed by light microscopy examination of Giemsa-stained thin blood smears with a minimum of 500 red blood cells counted.
Fresh A + blood was washed three times, and a stock 10% hematocrit (HCT) solution of uninfected red cells in completed F12/DMEM media (cDMEM) was created. […] After 24 hours, the plate was read using a Synergy H1 (BioTek, Winooski, VT) with excitation = 535 nm, emission = 615 nm, sensitivity = 150, and readings taken from the bottom of the wells. Blood smears were made from select undiluted starting wells and stained with Giemsa, and parasitemia was calculated manually from a minimum of 1,000 counted red blood cells. […]

The values that follow come from paper PMC12217462, “A propidium iodide-based in vitro screen of the “Bug Box” against Babesia duncani reveals potent inhibitors” (Antimicrobial Agents and Chemotherapy, 2025).

The structures appear in SMILES notation.

As usually defined, the EC50 is the concentration that produces a half-maximal response.

Consider `O=C(CCCCCCC(=O)Nc1ccccc1)NO` [Vorinostat], for which the EC50 stood at 1100 nM.
